# Test results published in US20100108086A1, “TOBACCO AND TOBACCO PACKAGING MATERIAL FOR PREVENTING OR REDUCING TOBACCO-ASSOCIATED INJURY IN THE AERODIGESTIVE TRACT OF A SUBJECT” (Technion Research & Development Foundation Ltd, priority 2007, published 2010).
# For at least one compound, name, drawing or mass did not settle the structure.
# Tested on: lymphocytes
# Assay: Lymphocyte survival, Trypan Blue exclusion assay
# Assay type: cell-based, human
# Conditions: for modulatory effect on lethal effect of TS on lymphocytes in the absence of saliva: 1 mM, 80 min (FIG. 24)
# Description: Saliva collection: Saliva was collected from healthy subjects, 3 males and 3 females ranging from 21-47 years of age, under non-stimulatory conditions in a quiet room during the morning between 8 am and noon. Saliva collection was performed at least 1 h after eating by spitting into a recipient for 10 minutes, as previously described (43). Following collection, saliva was immediately centrifuged at 800×g for 10 min at 4° C. to remove cells and cell debris and the resulting supernatant was used for biochemical analyses.
# Lymphocyte isolation: Blood from 10 consenting, healthy, non-smoking subjects, 5 males and 5 females ranging from 18-55 years of age, was drawn into EDTA-containing vacutainers. Lymphocytes were isolated by Ficoll-Hypaque (Sigma) gradient centrifugation according to the manufacturer's instructions and lymphocytes were suspended at 10^7 cells/ml PBS (Beit-Ha'emek Industries, Israel), and used immediately in experiments.
# A reproducible vacuum was created in the flask and upon application of vacuum for 5 s, 80-100 ml of TS from the lit cigarette was drawn into the flask. […] Saliva treatment of lymphocytes was performed by suspending these in PBS supplemented with 30% (v/v) saliva. Following treatment with the TS of 0.5 cigarettes, flasks were incubated at 37° C. for 20 min in a metabolic shaker and subjected to a further 4 treatments with TS, as described above.
# Measurement of lymphocyte survival: Lymphocyte viability was assessed by Trypan Blue exclusion assay.
SMILES,effect on death rate of lymphocytes exposed to TS and saliva (1 mM agent in suspension medium),modulatory effect on lethal effect of TS on lymphocytes in the absence of saliva
O=C1O[C@H]([C@@H](O)CO)C(O)=C1O [ascorbate],did not alter the death rate,Neither ascorbate nor deferoxamine were found to have any modulatory effect
CC(=O)N(O)CCCCCNC(=O)CCC(=O)N(O)CCCCCNC(=O)CCC(=O)N(O)CCCCCN [deferoxamine],–,Neither ascorbate nor deferoxamine were found to have any modulatory effect
